Hit rate of the full screen: of about 220,000 compounds, about 770 (0.35%) were called active. Inconclusive means that the source gave no clear call. Such entries were picked first, then a sample of the others. Cut-off read from the data, not from the text of the source: active = binding response below about 49% or above about 150%; inconclusive = no clear call, values can overlap the other calls; inactive = in between.
target: Guanine nucleotide-binding protein G(o) subunit alpha (Homo sapiens) (UniProt P09471); test: RGS7-Galphao binding modulators, primary screen, biochemical, multiplexed bead flow cytometry (AID 1439); conditions: at 10 µM, actives lie on both sides;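 note: fluorescent Galphao held in activated GDP-AlF4 state binding bead-coupled RGS7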

The chains behind the UniProt entries cited, without tags or fusion partners.
UniProt P09471, whole entry, looked up: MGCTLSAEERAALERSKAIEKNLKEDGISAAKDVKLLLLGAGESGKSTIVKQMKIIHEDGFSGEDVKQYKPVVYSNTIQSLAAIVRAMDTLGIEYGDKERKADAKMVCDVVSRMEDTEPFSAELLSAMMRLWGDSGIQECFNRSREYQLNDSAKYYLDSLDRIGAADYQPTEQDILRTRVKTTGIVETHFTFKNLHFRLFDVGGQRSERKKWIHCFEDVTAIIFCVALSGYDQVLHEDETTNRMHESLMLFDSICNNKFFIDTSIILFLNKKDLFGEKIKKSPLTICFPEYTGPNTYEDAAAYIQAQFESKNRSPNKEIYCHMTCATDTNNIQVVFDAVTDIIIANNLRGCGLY

Compound	binding response (% of control)
COc1cc(/C=N/NC(=O)Cc2csc(C)n2)ccc1OCC(C)C	inconclusive: 95.4%
S=c1nc(-c2ccccc2)c(-c2ccccc2)n[nH]1	inconclusive: 111%
CC(NC(=O)Cc1ccc([N+](=O)[O-])cc1)c1ccc2c(c1)OCO2 (configuration not stated)	inconclusive: 81.4%
O=C1C2C3C=CC(C4CC34)C2C(=O)N1c1cc(Cl)ccn1 (configuration not stated)	inconclusive: 111%
COCCN(C(=O)Nc1ccc(OC)cc1OC)C1CCN(C(C)C)CC1	inactive: 133%
CC(=O)CSc1nnc(C(F)(F)F)n1C	inconclusive: 92.5%
Cc1nc(N)nc(Nc2ccc(C#N)cc2)c1Br	inconclusive: 81%
COc1ccc(CN2CCNC(=O)C2CC(=O)NCc2cccc(C)n2)c(OC)c1 (configuration not stated)	inconclusive: 55.2%
Cc1ccc(C(=O)/C=C/N(C)C)cn1	inconclusive: 42.7%
CC(C)CCC(C(=O)O)C(C)CC(=O)NNC(=O)c1ccco1 (configuration not stated)	inconclusive: 90.8%
O=c1[nH]c(=S)[nH]c2sccc12	inconclusive: 111%
COCCn1c(SCC(=O)N2CCN(c3ccccc3)CC2)nc2c(c1=O)SC(C)C2 (configuration not stated)	inconclusive: 118%
CNc1nc(N)c(C(=O)C23CC4CC(CC(C4)C2)C3)s1	inconclusive: 107%
CC(C)n1c(C(F)(F)F)nc2cc(C(=O)N3CCCCC3)ccc21	inconclusive: 9.51%
NC(=S)N/N=C1/CCSc2ccc3ccccc3c21	inactive: 104%
C(=N\NCc1ccccc1)/c1ccc2nccnc2c1	inconclusive: 96.8%
Cn1c(=O)[nH]c(=O)c2[nH]c(CN3CCN(Cc4ccccc4)CC3)nc21	inconclusive: 84.5%
COc1cccc(COC(=O)c2nn(-c3ccccc3)nc2N)c1	inactive: 98.7%
COc1ccc(OCCOC(=O)c2cccc(-n3cnnn3)c2)cc1	active: 16.9%
O=C(CC1Nc2c3ccccc3nc(=S)n2C1=O)NC1CCCCC1 (configuration not stated)	inactive: 99.2%
Cc1ccc(C(=O)N/N=C\c2ccc([N+](=O)[O-])o2)cn1	inconclusive: 113%
CN1CC(=O)N(CC(=O)N2CCC(Cc3ccccc3)CC2)C1=O	inconclusive: 102%
N#C/C(=C\c1ccccc1)C(=O)Nc1nncs1	inconclusive: 99%

Compound	binding response (% of control)
COC(=O)c1cccc(CN2C(=O)SC(Nc3ccccc3)C2=O)c1 (configuration not stated)	inconclusive: 268%
O=C(NNS(=O)(=O)c1ccc(Cl)cc1)c1cc(-c2ccccc2)n[nH]1	inconclusive: 97.8%
CCOC(=O)c1ccc(NC(=O)c2nc[nH]c2C(=O)N[C@@H](CC(C)C)C(=O)OC(C)(C)C)cc1	inconclusive: 76.9%
CC(NC(=O)c1cc2cc([N+](=O)[O-])ccc2oc1=O)C1CCCO1 (configuration not stated)	inconclusive: 84.8%
CCC(CC)NC(=O)CCCSc1nc2ccccc2[nH]1	inactive: 103%
FC(F)(F)c1cnc(N/N=C/c2ccncc2)c(Cl)c1	inconclusive: 155%
O=C(Nc1ccccc1NS(=O)(=O)c1ccc(F)cc1)C1CCCC1	inconclusive: 106%
COc1cccc(/C=N/n2cnc3cc(C)c(C)cc32)c1OC	inconclusive: 88%
O=C(c1ccc(Cl)nc1)N1CCN(S(=O)(=O)c2ccc(Cl)cc2)CC1	inconclusive: 107%
COc1cc(/C=C/C(=O)O)cc(OC)c1OC	inconclusive: 200%
Cc1cc(C)c2c(=O)n(CC(=O)Nc3ccc(Cl)cc3)sc2n1	inconclusive: 76.8%
CCO/C=C1/C(=O)N(c2ccc(OC)cc2)C(=O)c2ccccc21	inconclusive: 125%
S=C(Nc1ccc2c(c1)OCO2)Nc1ccc2c(c1)OCO2	active: 159% [activator]
O=C(/C=C/c1ccc([N+](=O)[O-])cc1)N1CCN(S(=O)(=O)c2cccs2)CC1	inconclusive: 124%
COCCCn1c(C)c(C(C)=O)cc(NC(=O)c2ccccc2)c1=O	inconclusive: 92.6%
O=C(CN1C2CCC1CC(NC(=O)NC1CCCCC1)C2)NC1CC1 (configuration not stated)	inactive: 101%
C/C(=N\NC(=O)c1ccc(NS(=O)(=O)c2cccs2)cc1)c1ccc(O)cc1O	inconclusive: 22.1%
CCCCC(=O)N(Cc1ccc(-c2ccccc2-c2nn[nH]n2)cc1)[C@H](C(=O)O)C(C)C	inactive: 104%
Cc1nc(C(=O)Nc2ccccc2)sc1C(=O)Nc1ccccc1	inconclusive: 62.5%
Cc1ccc(S(=O)(=O)N2CCC(C(=O)NNC(=O)c3ccc(F)cc3)CC2)cc1	inactive: 99.6%
Clc1ccc(-c2noc(/C=C/c3ccccc3)n2)cc1	inconclusive: 139%
COc1ccc(N(C)C(=O)Nc2ccc3nsnc3c2)cc1	inconclusive: 71.4%
Cc1nc(Nc2ccc(S(N)(=O)=O)cc2)sc1C(=O)Nc1ccccc1	inconclusive: 100%

Compound	binding response (% of control)
O=C1CCCC2=C1C(c1ccccc1)NC(=S)N2 (configuration not stated)	inconclusive: 104%
CCCC(=O)Nc1cc(OC)c(C(=O)OC)cc1Cl	inconclusive: 137%
COc1ccc(/C=N/NC(=O)c2cccc(Br)c2)cc1COc1ccccn1	inconclusive: 26.8%
COc1ccc(CCN(Cc2ccccn2)C(=S)Nc2ccc(C)cc2)cc1OC	inconclusive: 92.1%
Cc1ccc(CCNC(=O)CN(C)S(=O)(=O)c2ccc3c(c2)n(C)c(=O)c(=O)n3C)cc1	inconclusive: 103%
CN(CCC#N)C(=O)COC(=O)c1ccc(Cl)c(S(=O)(=O)N(C)c2ccccc2)c1	inactive: 103%
CN(C)c1ccc(C(=O)OCC(=O)NC2CCCCC2)cc1	inactive: 103%
O=c1c2ccccc2nc(COc2ccccc2)n1/N=C/c1ccc(O)cc1O	inconclusive: 94%
COC(=O)c1c(C)oc(C)c1S(=O)(=O)NC(C)(C)C	inconclusive: 106%
O=C1C2C3C=CC(CNS(=O)(=O)c4ccccc4[N+](=O)[O-])(O3)C2C(=O)N1c1ccccc1 (configuration not stated)	inconclusive: 100%
Cc1[nH]n(C(N)=S)c(=O)c1N=Nc1ccc2ccccc2c1	inconclusive: 105%
C=CCSc1nc2ccsc2c(=O)n1-c1ccccc1	inconclusive: 118%
CN(C)c1ccc(/C=C/C(=O)c2cccnc2)cc1	inconclusive: 38.8%
CCCOc1ncnc2c1[nH]c1ccc(OC)cc12	inconclusive: 94%
NC(=O)c1ccc(NC(=O)COC(=O)/C=C/c2ccc3c(c2)OCO3)cc1	inconclusive: 151%
OCC(CO)(CO)NC(=S)Nc1cc(Cl)cc(Cl)c1	inconclusive: 111%
C/C(=N\NC(=O)c1cccc(S(=O)(=O)N2CCOCC2)c1)c1cc2ccccc2o1	inconclusive: 58.6%
O=C(Nc1ccc2c(c1)OCCO2)c1cccnc1Oc1ccccc1	inconclusive: 138%
O=C(CCCc1cccs1)Nc1nccs1	inactive: 108%
Cn1cc(Br)c(-c2cccc(N3C(=O)CC(C)(C)CC3=O)c2)n1	inconclusive: 205%
Cc1ccc(S(=O)(=O)N2CCN(CC(=O)N/N=C\c3ccncc3)CC2)cc1	inconclusive: 109%
O=C(N/N=C/c1ccc(N2CCOCC2)o1)c1cccc([N+](=O)[O-])c1	inactive: 86.6%
CC1CN(C(=O)C2CCCN2S(=O)(=O)c2ccc(Cl)cc2)CC(C)O1 (configuration not stated)	inactive: 99.7%

In the list so far, these contain a CF3 group.
Compound	binding response (% of control)
CC(=O)CSc1nnc(C(F)(F)F)n1C	inconclusive: 92.5%
CC(C)n1c(C(F)(F)F)nc2cc(C(=O)N3CCCCC3)ccc21	inconclusive: 9.51%
FC(F)(F)c1cnc(N/N=C/c2ccncc2)c(Cl)c1	inconclusive: 155%

(cont.)

Compound	binding response (% of control)
O=C(NC1CCCCC1)C(=S)N1CCOCC1	inconclusive: 97.8%
CC1Cc2nc(SCC(=O)Nc3ccc4c(c3)OCO4)n(-c3ccc(F)cc3)c(=O)c2S1 (configuration not stated)	inconclusive: 50%
COCCNC(=O)CN(C(=O)Cn1nnc2ccccc21)c1cccc(C)c1C	inconclusive: 102%
O=C(CCN1C(=O)C2C3C=CC(C3)C2C1=O)N1CCCCC1 (configuration not stated)	inconclusive: 85.9%
C=C1CCN(CC(=O)OC)S(=O)(=O)c2ccccc21	inconclusive: 119%
Cc1cc(C)c(C)c(S(=O)(=O)N[C@@H](C)C(=O)OC(C)C(=O)NC(N)=O)c1C (some centres not stated)	inconclusive: 119%
CCCCc1c(O)nc(N2CCN(Cc3ccccc3)CC2)[nH]c1=O	inactive: 99.9%
CCC(=O)Nc1cccc(C2=NOC3(C2)C[C@H](C(N)=O)N(C(=O)Cc2ccc([N+](=O)[O-])cc2)C3)c1 (some centres not stated)	inconclusive: 138%
Oc1cccc(Nc2nc(O)c(/C=C3\C=Nc4ccccc43)s2)c1	inconclusive: -46%
O=C(O)CCCC(=O)NCc1c(Cl)cccc1Sc1ccc(Cl)cc1	inconclusive: 87.9%
Nc1c(C(=O)N/N=C/c2ccc(OCc3ccccc3)cc2)cnn1-c1ccccc1	inconclusive: 85.5%
NS(=O)(=O)c1cccc(NC(=O)CN2CCCc3ccccc32)c1	inconclusive: 90.7%
O=C(NC(=S)Nc1ccccc1)c1cncc(C#Cc2ccccc2)c1	inconclusive: 97.7%
FC(F)(F)c1ccc(-c2n[nH]c(=S)o2)nc1	inconclusive: 40.9%
CC(=O)Nc1ccc(OC(=O)c2cc3cc(Br)cc(Br)c3oc2=O)cc1	inactive: 80.6%
O=C(O)CCN1CCc2ccccc2C1c1cccs1 (configuration not stated)	inactive: 98.4%
O=Nc1ccc(O)c2ncccc12	inconclusive: 179%
N#C/C(=C\c1ccccc1)C(=O)N(c1ccccn1)C1CCCCC1	inactive: 96.8%
Nc1ccc(N=Nc2ccccc2)c2ccccc12	inconclusive: 124%
CCn1c(CSc2n[nH]c(N)n2)nc2cc(C(=O)O)ccc21	inconclusive: 84.9%
Cc1cc(C)cc(NC(=O)N(CCC#N)Cc2cccs2)c1	inconclusive: 87.5%
COc1cccc(-c2nc(N3CCN(Cc4ccccc4)CC3)c3ccccc3n2)c1O	inconclusive: 93.5%
COCc1cc(C)nc(SCC(=O)Nc2ccccc2C)c1C#N	inactive: 103%

From PubChem BioAssay AID1439 (NMMLSC, 2008)
